Results are given in words; binding and its absence hold for the method and conditions named. Some entries that bind do so weakly or less than the wild type.
Target: full length F protein from RSV (A2 strain), expressed in transfected 293F cells (RSV (A2 strain)) (UniProt P03420)
Test: intracellular staining of 293F cells transfected with full length RSV F (A2)

The chains behind the UniProt entries cited, without tags or fusion partners. Residues count along the entry.
UniProt P03420, residues 26-574: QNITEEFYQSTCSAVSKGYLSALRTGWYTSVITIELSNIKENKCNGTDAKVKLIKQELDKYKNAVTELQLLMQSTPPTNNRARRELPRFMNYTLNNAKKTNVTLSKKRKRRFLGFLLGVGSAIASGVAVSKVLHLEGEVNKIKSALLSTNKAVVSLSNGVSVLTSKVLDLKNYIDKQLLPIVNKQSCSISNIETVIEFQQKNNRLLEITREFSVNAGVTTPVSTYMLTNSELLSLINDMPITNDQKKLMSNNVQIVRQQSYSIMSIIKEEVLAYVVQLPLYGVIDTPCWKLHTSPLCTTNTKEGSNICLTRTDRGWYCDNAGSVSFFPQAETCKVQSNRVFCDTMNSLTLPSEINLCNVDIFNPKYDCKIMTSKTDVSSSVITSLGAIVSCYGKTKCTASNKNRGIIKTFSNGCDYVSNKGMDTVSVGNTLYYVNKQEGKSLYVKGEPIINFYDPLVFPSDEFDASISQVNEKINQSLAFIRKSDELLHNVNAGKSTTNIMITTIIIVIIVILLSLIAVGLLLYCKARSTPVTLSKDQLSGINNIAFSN

binding: binds
B1: HMB2435 (antibody, human IgG1, V domains shown)
VH: QVQLVESGGGVVQPGRPLRLSCAASGFAFNNFALHWVRQAPGKGPEWLAAVSYDGTSPYYAESVRARFSISRDNSKKTFYLQLDSLRPEDTAVYYCARGLGSGSYSWIGYFYAMDVWGRGTTVTVSS
VL: QSALTQPASVSGSPGQSITISCTGTSSDVGGYVYVAWYQQHPGTAPKLIIYDVSDRPSGVSNRFSGSKSGNTASLTISGLQAEDDADYYCISYTDRNTVVFGGGTKLTVL

From patent US20160200802A1
